Results: PMC12652440

Biological target: T1, AtPDF2-HD(L43R)-his L104R (Arabidopsis thaliana) (UniProt Q93V99)
T1 sequence (looked up, limits assumed): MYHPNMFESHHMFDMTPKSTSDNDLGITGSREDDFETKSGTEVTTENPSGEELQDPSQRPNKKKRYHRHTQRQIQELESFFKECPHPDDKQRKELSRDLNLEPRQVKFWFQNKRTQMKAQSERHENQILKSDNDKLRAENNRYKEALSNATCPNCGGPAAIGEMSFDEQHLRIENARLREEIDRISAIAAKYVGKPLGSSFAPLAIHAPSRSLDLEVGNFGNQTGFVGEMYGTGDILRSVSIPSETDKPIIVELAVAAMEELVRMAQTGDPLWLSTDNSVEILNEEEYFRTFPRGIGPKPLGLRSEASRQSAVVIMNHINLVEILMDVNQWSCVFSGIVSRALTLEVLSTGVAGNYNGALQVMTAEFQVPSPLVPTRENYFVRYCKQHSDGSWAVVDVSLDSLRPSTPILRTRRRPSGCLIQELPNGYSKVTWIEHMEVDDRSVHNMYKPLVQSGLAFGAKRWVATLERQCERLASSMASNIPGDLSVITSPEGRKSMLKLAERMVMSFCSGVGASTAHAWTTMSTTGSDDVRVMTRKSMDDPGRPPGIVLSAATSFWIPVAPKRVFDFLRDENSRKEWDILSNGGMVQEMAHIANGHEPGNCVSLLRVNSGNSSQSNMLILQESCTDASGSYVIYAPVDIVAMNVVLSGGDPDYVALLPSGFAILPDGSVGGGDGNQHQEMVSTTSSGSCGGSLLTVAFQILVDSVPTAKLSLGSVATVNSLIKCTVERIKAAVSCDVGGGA
Assay: EMSA
Conditions: binding significantly enhanced relative to wild-type PDF2; Chemiluminescent EMSA kit (Beyotime); pH and temperature not stated; competitor = unlabeled S1; recombinant protein; protein details: His (pET-30a); label: biotin

Sequence: TAATTAATTAATTAATTAATTAATTAATTAAT (double strand) [biotin-L1 box core tandem repeat probe]
- binding result: binds

The exact form of at least one protein or probe is not confirmed. Protein sequences can lack the tags named with them.
